PubChem BioAssay AID1224830, NIAID | 2016
Assay: 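Genes whose knock-down alters the TNF-alpha reporter response to LPS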 (primary screen). System: human THP-1 monocytic leukaemia cells, TNF dual-luciferase reporter clone, PMA-differentiated to macrophage-like cells. Reagents: siRNA pool against human genes, 50 nM. Timing: LPS for 4 h, given about 3 days after siRNA transfection. Challenge: bacterial LPS (TLR4 ligand), 10 ng/ml. Measured: 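TNF firefly reporter luminescence divided by renilla, normalised to the plate median, then turned into a robust z-score for each replicate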. Reading the numbers: TNF reporter robust z-score: higher = stronger TNF reporter response to LPS. Active means: 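Each well counts as active if its z-score is over 2.8 or under -1.5; controls are left without a call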.
Here is an unselected part of about 18,000 reagents. About 2,900 of all reagents (16%) were called active. 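Calls are made per well; low scores hint the gene aids the LPS response, high scores that it dampens it.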 Repeated entries: four replicate wells of each siRNA pool. Reagent sequences are not shown.

| Target gene | TNF reporter robust z-score | Outcome |
| --- | --- | --- |
| BAIAP2L1 | 0.39 | inactive |
| BAIAP2L1 | 1.04 | inactive |
| BAIAP2L1 | 1.21 | inactive |
| BAIAP2L1 | 0.72 | inactive |
| PLA2G4C | 1.21 | inactive |
| PLA2G4C | 1.7 | inactive |
| PLA2G4C | 0.79 | inactive |
| PLA2G4C | 0.94 | inactive |
| LPAR3 | -0.34 | inactive |
| LPAR3 | -0.81 | inactive |
| LPAR3 | -0.45 | inactive |
| LPAR3 | -0.62 | inactive |
| TCP10L | -0.76 | inactive |
| TCP10L | -0.06 | inactive |
| TCP10L | 0.2 | inactive |
| TCP10L | -0.44 | inactive |
| MTHFD1L | -0.69 | inactive |
| MTHFD1L | 0.23 | inactive |
| MTHFD1L | -0.33 | inactive |
| MTHFD1L | -0.28 | inactive |
| AMY1A | 0.3 | inactive |
| AMY1A | 0.82 | inactive |
| AMY1A | 0.44 | inactive |
| AMY1A | 0.54 | inactive |
| PCDHA2 | – | inactive |
| PCDHA2 | -0.87 | inactive |
| PCDHA2 | -0.35 | inactive |
| PCDHA2 | -0.66 | inactive |
| PCDHA2 | -0.78 | inactive |
| IMMP1L | 1.6 | inactive |
| IMMP1L | 1.1 | inactive |
| IMMP1L | 0.59 | inactive |
| IMMP1L | 3.24 | active |
| USP29 | -0.69 | inactive |
| USP29 | 0.06 | inactive |
| USP29 | 2.03 | inactive |
| USP29 | 1.1 | inactive |
| CARF | – | inactive |
| CARF | 1.19 | inactive |
| CARF | 2.41 | inactive |
| CARF | 4.31 | active |
| CARF | 3.34 | active |
| PRR19 | -0.8 | inactive |
| PRR19 | 1.08 | inactive |
| PRR19 | -0.16 | inactive |
| PRR19 | 0.46 | inactive |
| CHCHD7 | 0.79 | inactive |
| CHCHD7 | -0.34 | inactive |
| CHCHD7 | 0.02 | inactive |
| CHCHD7 | 0.38 | inactive |
| HSD11B1 | -0.11 | inactive |
| HSD11B1 | 0.47 | inactive |
| HSD11B1 | 0.72 | inactive |
| HSD11B1 | 1.19 | inactive |
| LEKR1 | -0.85 | inactive |
| LEKR1 | -0.42 | inactive |
| LEKR1 | -0.39 | inactive |
| LEKR1 | 0.32 | inactive |
| DRD2 | -1.06 | inactive |
| DRD2 | -0.93 | inactive |
| DRD2 | -0.94 | inactive |
| DRD2 | -0.38 | inactive |
| PCBP1 | -0.69 | inactive |
| PCBP1 | 0.03 | inactive |
| PCBP1 | -0.38 | inactive |
| PCBP1 | -0.52 | inactive |
| DIRAS3 | 6.73 | active |
| DIRAS3 | 3.26 | active |
| DIRAS3 | 2.59 | inactive |
| DIRAS3 | 3.28 | active |
| TRIM17 | -1.24 | inactive |
| TRIM17 | 1.34 | inactive |
| TRIM17 | -0.56 | inactive |
| TRIM17 | 3.18 | active |
| MOK | -2.01 | active |
| MOK | -1.83 | active |
| MOK | -1.98 | active |
| MOK | -1.73 | active |
| CXorf38 | -0.74 | inactive |
| CXorf38 | -0.76 | inactive |
| CXorf38 | -1.33 | inactive |
| CXorf38 | 0.33 | inactive |
| HELQ | 0.57 | inactive |
| HELQ | 1.32 | inactive |
| HELQ | 0.24 | inactive |
| HELQ | 1.69 | inactive |
| EMILIN3 | -0.25 | inactive |
| EMILIN3 | 0.35 | inactive |
| EMILIN3 | 0.84 | inactive |
| EMILIN3 | -0.02 | inactive |
| P2RX2 | -0.52 | inactive |
| P2RX2 | -0.15 | inactive |
| P2RX2 | -0.14 | inactive |
| P2RX2 | -0.11 | inactive |
| RBAK | 0.06 | inactive |
| RBAK | 0.62 | inactive |
| RBAK | 0.34 | inactive |
| RBAK | -0.47 | inactive |
| B3GNT3 | -0.83 | inactive |
| B3GNT3 | -0.53 | inactive |
| B3GNT3 | -0.48 | inactive |
| B3GNT3 | -0.22 | inactive |
| DNAJC24 | 0.13 | inactive |
| DNAJC24 | 0.72 | inactive |
| DNAJC24 | 2.29 | inactive |
| DNAJC24 | -0.47 | inactive |
| UCN3 | 2.48 | inactive |
| UCN3 | 3.89 | active |
| UCN3 | 2.29 | inactive |
| UCN3 | 3.07 | active |

5 neighbouring reagents already listed, for reference:
| Target gene | TNF reporter robust z-score | Outcome |
| --- | --- | --- |
| PLA2G4C | 0.94 | inactive |
| LPAR3 | -0.34 | inactive |
| LPAR3 | -0.81 | inactive |
| LPAR3 | -0.45 | inactive |
| LPAR3 | -0.62 | inactive |
